# Results as given in patent publication US10724099B2, “Multiplex methods to assay mixed cell populations simultaneously” (The Broad Institute, Inc., priority 2012, dated 2020).
# At least one structure is not confirmed: it was looked up by name or label, or the drawing left a doubt.
# Tests used:
# HCT-116 cells [1] = assay: DNA content by propidium iodide flow cytometry; type: cell-based; conditions: 10 μM, 24 hours or 48 hours
# Description: In addition, HCT-116 cells were treated with 10 μM of DMSO, or the Aurora Kinase Inhibitors barasertib, GSK1070916, MLN8054, BRD-7880, or tozasertib. 24 hours or 48 hours following treatment, cells were stained with propidium iodide and DNA content per cell was assessed using a Becton Dickinson LSR II flow cytometer.
# HCT-116 cells [2] = assay: Western blot phosphoserine 10-histone H3; type: cell-based; conditions: 10 μM
# Description: Finally, HCT-116 cells were treated with 10 μM of DMSO, barasertib, GSK1070916, MLN8054, BRD-7880, or tozasertib. Cells lysates were probed on Western blot using antibodies (diluted 1:1000) to histone H3 (Abcam cat. no. 24834), phosphoserine 10-histone H3 (Cell Signaling Technology cat no. 3377SS), aurora kinase B (Millipore cat. no. 04-1036), or beta-actin (Santa Cruz Biotechnology cat. no. sc-47778) and detected using a LI-COR Odyssey analyzer.
smiles,measurement,setting,value
CCN(CCCOc1ccc2c(Nc3cc(CC(=O)Nc4cccc(F)c4)n[nH]3)ncnc2c1)CCOP(=O)(O)O [barasertib],DNA content per cell,HCT-116 cells [1],increased DNA content
same,phosphorylation of serine 10 on histone H3,HCT-116 cells [2],decrease phosphorylation of serine 10 on histone H3
